Source: patent publication US20030125269A1, “T-TYPE CALCIUM CHANNEL” (priority 1998, published 2003)
For at least one compound, name, drawing or mass did not settle the structure.

Columns and labels:
mouse islet cells = experiment: Cytokine-induced increase in basal [Ca^2+]i in primary cultured mouse islet cells; format: cell-based; details: 10 μM; IL-1β 25 U/ml and IFNγ 300 U/ml for 6 h
Excerpt: LVA Ca^2+ channels are activated at low membrane potentials. This unique feature may allow then to regular [Ca^2+]i under nonstimulatory conditions. Indeed, basal [Ca^2+]i in cytokine-treated cells was approximately 3-fold higher than in nontreated cells (FIG. 24A).

β-TC3 cells = experiment: Cytokine-induced DNA fragmentation in β-TC3 cells; format: cell-based, mouse; details: β-TC3 cells (n=2); same results in NIT-1 cells (n=3)

COC(=O)C1=C(C)NC(C)=C(C(=O)OC)C1c1ccccc1[N+](=O)[O-] [nifedipine]
effect on cytokine-induced increase in basal [Ca^2+]i (mouse islet cells): but not by
effect on cytokine-induced DNA fragmentation (β-TC3 cells): had not inhibitory effect
